Results from cells or extracts need not show a direct contact.
Molecular target: TATA binding protein (TBP), endogenous in HeLa nuclear extract (Homo sapiens) (UniProt P20226)
Experiment: binding assay
Details: square wave voltammetry; endogenous TBP quantified at 4±2 nM; protein in an extract; protein details: HeLa nuclear extract, Santa Cruz Biotechnologies; folded or branched DNA

The chains behind the UniProt entries cited, without tags or fusion partners.
UniProt P20226, whole entry: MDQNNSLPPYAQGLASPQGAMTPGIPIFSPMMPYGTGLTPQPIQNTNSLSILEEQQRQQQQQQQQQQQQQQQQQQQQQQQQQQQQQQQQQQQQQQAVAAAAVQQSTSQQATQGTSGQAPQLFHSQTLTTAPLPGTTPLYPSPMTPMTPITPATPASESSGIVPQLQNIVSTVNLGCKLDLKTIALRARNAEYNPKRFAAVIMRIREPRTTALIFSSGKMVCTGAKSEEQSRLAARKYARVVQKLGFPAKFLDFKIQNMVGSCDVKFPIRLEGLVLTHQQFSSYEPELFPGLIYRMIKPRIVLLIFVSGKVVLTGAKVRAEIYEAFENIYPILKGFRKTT

Sequence: GAATAGGTTCCTATAAAAGGTTGGTTTTATAAACCTATCCTATTC [TBP electrochemical probe]
- binding result: binds

From patent publication US20130288923, “Nucleotide-Based Probes and Methods for the Detection and Quantification of Macromolecules and Other Analytes” (THE REGENTS OF THE UNIVERSITY OF CALIFORNIA, published 2013)
